Laboratory results as given in the supplement of paper PMC12873370.
Where “and” joins values, the source holds several entries; their conditions need not be identical. Equal entries are not always repeated. This is one part of the list. Most values come without repeats; read them as rough.

Legend:
[1] = system: MEPP (mouse ovarian epithelium Trp53/Pten KO); assay: cell viability relative to untreated (fraction); higher = less growth inhibition; conditions: 5 µM; 3 days
[2] = system: PREPP (mouse prostate epithelium Trp53/Pten KO); assay: as above; conditions: 5 µM; 3 days

| Structure (SMILES) | cell viability [1] | cell viability [2] |
| --- | --- | --- |
| O=C1O[C@H]([C@@H](O)CO)C([O-])=C1O.[Na+] | 1.02 | 1.05 |
| C[C@H](CCC(=O)NCC(=O)O)[C@H]1CC[C@H]2[C@@H]3[C@H](O)C[C@@H]4C[C@H](O)CC[C@]4(C)[C@H]3CC[C@]12C | 0.996 and 1.02 | 1.05 and 0.9 |
| CCOc1ccc2ccccc2c1C(=O)N[C@@H]1C(=O)N2[C@@H]1SC(C)(C)[C@@H]2C(=O)O | 0.927 | 0.906 |
| CCCCCCCCCCCCN1CCCCCC1=O | 0.968 | 1.03 |
| C/C1=C\CC[C@]23O[C@H]2[C@@H](OC3=O)c2c(C)coc2C1 | 1.35 | 0.929 |
| CC(=O)O[C@@H]1C[C@H](O)[C@@]23CO[C@@H](O)[C@]1(C)[C@@H]2C[C@@H](O)[C@]1(C)[C@@H]3C(=O)[C@H](OC(C)=O)[C@@]2(C)[C@H](c3ccoc3)C[C@H]3O[C@]321 | 0.507 | 0.928 |
| NCC(=O)NCC(=O)O | 0.9 | 0.839 |
| CN(Cc1ccc(C(C)(C)C)cc1)Cc1cccc2ccccc12 | 1.1 | 1.07 |
| CC1CC[C@@]2(OC1)O[C@H]1C[C@H]3[C@@H]4CC[C@@H]5C[C@@H](O[C@@H]6O[C@H](CO)[C@H](O)[C@H](O)[C@H]6O[C@@H]6O[C@H](CO)[C@@H](O)[C@H](O)[C@H]6O)CC[C@]5(C)[C@H]4CC[C@]3(C)[C@H]1[C@@H]2C (some centres not stated) | 0.881 | 0.733 |
| O=C(O)CCc1c[nH]c2ccccc12 | 1.05 | 0.914 |
| C[C@H](CCC(=O)O)[C@H]1CC[C@H]2[C@@H]3[C@@H](O)C[C@@H]4C[C@H](O)CC[C@]4(C)[C@H]3CC[C@]12C | 1.06 | 0.89 |

Looked up by compound from the list above, two records:

| Structure (SMILES) | cell viability [1] | cell viability [2] |
| --- | --- | --- |
| C[C@H](CCC(=O)O)[C@H]1CC[C@H]2[C@@H]3[C@@H](O)C[C@@H]4C[C@H](O)CC[C@]4(C)[C@H]3CC[C@]12C | 1.06 | 0.89 |
| O=C1O[C@H]([C@@H](O)CO)C([O-])=C1O.[Na+] | 1.02 | 1.05 |
